No constants are given. Whether binding was seen depends on the method and setting. Binding seen in cells or lysates may run through a third protein.

By UniProt entry, the sequences of proteins in these tests, tags left out. Where a name states a change or a piece, a line headed by the entry shows the natural chain unless it says otherwise. Residues count along the entry.
UniProt Q15075, residues 36-218: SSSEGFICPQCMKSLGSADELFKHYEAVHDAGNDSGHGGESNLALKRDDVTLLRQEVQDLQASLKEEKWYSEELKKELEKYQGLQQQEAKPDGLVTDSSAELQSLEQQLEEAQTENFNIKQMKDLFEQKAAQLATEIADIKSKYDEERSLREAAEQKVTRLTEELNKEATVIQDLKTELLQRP
UniProt P07339: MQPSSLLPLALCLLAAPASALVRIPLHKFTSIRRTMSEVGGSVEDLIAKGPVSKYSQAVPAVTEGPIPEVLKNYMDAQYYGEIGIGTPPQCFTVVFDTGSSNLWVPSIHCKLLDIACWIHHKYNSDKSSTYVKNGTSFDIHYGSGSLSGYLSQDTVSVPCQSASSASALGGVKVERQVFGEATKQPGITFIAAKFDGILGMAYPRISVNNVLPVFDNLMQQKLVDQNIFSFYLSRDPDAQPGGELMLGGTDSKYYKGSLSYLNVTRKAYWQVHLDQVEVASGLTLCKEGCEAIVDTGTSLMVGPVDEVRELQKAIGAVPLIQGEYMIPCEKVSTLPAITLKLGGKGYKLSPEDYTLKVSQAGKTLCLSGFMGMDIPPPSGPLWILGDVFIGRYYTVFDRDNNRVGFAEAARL

The experiment has as its target GST-EEA1-Rab5-GTP-binding domain (human) (UniProt Q15075). Briefly: pull-down; GST-EEA1-Rab5BD (4 μg) added to 800 μL postnuclear supernatant of U87MG cells (serum-starved, or PDGF-BB 50 ng/mL for 5 min; lysed by needle passage in 250 mM sucrose, 3 mM imidazole pH 7.4, 0.5 mM EDTA, no detergent), overnight at 4 °C, then Glutathione-Sepharose-4B beads 2 h at 4 °C, five washes, immunoblot; meant to isolate Rab5-GTP early endosomes; only the target purified. In general terms: Immunoblotting shows a protein as a band on a membrane.

Take cathepsin D (from UniProt P07339): the binding entry was “no binding (tested: 4 μg GST-EEA1-RBD in 800 μL PNS)”.
